# Reference: the supplement of paper PMC12819154, “High-throughput peptide-centric local stability assay extends protein–ligand identification to membrane proteins, tissues and bacteria” (Nature Structural & Molecular Biology, 2025)
# Sequences of proteins named here, by UniProt entry; tags and fusion partners are left off. A change or cut given only in a name is not applied to a line headed by its entry.
# UniProt P68254: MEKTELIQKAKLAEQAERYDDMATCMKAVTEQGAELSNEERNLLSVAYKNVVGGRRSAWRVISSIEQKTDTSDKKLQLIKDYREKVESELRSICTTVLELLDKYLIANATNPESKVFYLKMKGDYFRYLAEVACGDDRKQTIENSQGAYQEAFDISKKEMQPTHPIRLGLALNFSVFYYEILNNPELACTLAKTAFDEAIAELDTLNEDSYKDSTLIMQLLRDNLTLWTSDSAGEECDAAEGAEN
# UniProt P70318: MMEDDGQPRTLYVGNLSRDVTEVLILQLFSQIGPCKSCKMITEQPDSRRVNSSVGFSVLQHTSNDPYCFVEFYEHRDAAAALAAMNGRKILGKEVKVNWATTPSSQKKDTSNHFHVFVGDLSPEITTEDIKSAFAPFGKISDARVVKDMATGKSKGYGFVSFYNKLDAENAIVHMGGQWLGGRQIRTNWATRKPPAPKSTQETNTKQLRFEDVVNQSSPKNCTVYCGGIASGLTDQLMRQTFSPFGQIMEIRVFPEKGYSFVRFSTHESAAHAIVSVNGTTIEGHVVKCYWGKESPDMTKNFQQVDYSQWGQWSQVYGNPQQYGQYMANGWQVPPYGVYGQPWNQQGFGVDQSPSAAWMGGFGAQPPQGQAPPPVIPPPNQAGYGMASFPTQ
# UniProt P97765: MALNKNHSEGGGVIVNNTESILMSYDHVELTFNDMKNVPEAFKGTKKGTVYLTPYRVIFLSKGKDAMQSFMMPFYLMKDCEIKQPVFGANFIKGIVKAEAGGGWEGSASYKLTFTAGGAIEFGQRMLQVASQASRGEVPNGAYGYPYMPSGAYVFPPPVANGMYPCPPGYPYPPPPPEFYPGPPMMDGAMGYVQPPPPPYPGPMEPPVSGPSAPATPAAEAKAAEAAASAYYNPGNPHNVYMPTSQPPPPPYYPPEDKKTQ
# UniProt P80315: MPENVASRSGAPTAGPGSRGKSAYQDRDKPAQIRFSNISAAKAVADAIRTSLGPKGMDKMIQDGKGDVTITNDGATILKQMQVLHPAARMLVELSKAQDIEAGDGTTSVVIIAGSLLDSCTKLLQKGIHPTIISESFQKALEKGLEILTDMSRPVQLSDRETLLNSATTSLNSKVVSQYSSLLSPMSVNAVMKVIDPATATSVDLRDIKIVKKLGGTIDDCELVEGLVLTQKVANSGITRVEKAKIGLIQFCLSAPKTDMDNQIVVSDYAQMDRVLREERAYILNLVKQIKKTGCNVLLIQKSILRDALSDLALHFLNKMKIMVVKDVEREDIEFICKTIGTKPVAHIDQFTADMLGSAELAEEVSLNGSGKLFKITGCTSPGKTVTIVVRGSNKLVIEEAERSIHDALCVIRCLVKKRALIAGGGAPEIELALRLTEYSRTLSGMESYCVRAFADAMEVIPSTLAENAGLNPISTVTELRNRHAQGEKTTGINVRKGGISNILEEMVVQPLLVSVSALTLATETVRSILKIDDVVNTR
# UniProt P60824: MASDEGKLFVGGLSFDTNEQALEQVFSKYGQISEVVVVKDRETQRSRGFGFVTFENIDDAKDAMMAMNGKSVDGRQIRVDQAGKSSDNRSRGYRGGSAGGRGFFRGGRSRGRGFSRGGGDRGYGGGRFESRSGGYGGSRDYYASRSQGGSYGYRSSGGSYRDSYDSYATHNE
# UniProt P83093, whole entry: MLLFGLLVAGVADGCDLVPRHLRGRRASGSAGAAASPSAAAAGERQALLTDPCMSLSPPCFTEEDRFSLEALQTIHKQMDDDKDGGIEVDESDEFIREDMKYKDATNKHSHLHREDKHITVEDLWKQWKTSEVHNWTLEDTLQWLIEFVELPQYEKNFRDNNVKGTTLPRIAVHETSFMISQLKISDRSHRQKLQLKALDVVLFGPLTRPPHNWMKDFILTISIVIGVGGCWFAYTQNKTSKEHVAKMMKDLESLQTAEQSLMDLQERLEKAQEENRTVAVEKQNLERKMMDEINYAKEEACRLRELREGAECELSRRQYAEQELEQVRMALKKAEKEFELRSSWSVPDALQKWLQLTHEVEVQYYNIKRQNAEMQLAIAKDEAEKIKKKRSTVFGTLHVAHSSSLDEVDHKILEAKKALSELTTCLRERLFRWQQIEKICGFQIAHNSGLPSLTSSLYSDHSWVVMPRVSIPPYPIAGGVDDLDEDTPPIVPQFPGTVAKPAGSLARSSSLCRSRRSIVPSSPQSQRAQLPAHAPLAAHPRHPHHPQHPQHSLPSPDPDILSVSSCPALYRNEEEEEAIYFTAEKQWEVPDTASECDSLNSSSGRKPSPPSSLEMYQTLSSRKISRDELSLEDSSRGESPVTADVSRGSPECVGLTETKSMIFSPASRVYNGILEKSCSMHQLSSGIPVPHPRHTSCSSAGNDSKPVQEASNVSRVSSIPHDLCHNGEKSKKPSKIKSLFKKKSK
# UniProt P70441: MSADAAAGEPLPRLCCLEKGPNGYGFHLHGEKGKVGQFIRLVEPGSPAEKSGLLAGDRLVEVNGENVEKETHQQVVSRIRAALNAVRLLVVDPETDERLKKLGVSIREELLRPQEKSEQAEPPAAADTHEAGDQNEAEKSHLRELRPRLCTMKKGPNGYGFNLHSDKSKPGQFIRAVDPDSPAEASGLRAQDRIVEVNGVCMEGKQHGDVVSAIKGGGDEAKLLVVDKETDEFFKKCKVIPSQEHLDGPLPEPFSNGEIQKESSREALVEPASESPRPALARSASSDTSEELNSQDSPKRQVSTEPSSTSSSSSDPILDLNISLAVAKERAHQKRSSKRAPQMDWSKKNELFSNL
# UniProt P70665: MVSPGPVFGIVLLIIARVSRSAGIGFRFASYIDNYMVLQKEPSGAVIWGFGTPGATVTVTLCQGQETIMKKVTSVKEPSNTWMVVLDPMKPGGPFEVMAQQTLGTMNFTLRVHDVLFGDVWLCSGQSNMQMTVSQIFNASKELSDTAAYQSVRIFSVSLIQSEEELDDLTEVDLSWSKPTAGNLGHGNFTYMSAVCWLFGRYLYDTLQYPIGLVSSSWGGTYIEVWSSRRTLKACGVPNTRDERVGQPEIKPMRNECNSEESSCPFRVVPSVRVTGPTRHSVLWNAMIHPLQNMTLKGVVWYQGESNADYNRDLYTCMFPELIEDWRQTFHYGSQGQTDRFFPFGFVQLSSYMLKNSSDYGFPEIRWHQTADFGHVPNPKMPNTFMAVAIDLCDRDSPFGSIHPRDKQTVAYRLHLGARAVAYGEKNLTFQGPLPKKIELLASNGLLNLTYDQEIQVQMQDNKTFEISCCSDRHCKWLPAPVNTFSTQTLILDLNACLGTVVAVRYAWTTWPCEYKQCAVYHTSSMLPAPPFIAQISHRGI
# UniProt P70699, whole entry: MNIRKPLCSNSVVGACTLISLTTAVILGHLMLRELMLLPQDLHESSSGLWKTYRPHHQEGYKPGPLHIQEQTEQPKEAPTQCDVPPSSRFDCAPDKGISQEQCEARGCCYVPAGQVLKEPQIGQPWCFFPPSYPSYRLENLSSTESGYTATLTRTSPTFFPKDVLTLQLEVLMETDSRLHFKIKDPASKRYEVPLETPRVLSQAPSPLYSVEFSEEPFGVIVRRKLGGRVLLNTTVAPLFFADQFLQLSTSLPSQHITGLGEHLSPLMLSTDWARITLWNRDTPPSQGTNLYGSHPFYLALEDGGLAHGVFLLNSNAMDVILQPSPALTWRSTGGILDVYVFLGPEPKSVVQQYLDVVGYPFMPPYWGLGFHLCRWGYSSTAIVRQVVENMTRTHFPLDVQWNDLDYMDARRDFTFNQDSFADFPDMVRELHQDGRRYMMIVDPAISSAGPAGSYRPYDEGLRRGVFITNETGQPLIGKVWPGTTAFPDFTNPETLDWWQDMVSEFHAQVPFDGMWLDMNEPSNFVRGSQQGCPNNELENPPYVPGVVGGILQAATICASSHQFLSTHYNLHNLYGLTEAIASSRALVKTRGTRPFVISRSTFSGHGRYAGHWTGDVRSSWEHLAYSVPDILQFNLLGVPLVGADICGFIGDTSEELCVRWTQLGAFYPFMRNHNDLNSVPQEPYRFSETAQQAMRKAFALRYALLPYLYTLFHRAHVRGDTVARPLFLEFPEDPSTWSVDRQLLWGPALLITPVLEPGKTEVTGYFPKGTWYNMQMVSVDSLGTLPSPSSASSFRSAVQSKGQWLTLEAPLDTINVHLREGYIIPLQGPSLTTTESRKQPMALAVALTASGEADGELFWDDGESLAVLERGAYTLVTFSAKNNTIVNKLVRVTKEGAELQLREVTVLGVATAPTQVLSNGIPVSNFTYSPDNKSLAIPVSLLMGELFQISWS
# UniProt P62137, whole entry: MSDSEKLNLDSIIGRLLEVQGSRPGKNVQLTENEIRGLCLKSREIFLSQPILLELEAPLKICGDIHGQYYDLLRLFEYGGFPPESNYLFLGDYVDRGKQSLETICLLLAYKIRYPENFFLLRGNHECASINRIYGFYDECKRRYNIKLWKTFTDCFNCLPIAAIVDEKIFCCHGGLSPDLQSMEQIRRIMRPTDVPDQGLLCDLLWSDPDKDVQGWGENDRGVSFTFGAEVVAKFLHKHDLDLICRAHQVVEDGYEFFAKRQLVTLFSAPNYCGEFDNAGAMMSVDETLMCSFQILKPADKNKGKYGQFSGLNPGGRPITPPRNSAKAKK
# UniProt P63002: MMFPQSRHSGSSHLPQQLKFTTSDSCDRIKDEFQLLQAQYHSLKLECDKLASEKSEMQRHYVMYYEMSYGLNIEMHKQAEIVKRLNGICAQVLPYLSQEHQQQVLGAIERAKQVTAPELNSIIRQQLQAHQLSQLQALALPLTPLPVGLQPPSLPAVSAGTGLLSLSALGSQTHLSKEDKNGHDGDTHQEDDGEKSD
# UniProt P97352: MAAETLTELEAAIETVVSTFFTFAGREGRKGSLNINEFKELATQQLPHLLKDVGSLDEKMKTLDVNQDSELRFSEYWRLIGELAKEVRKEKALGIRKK
# UniProt P70704: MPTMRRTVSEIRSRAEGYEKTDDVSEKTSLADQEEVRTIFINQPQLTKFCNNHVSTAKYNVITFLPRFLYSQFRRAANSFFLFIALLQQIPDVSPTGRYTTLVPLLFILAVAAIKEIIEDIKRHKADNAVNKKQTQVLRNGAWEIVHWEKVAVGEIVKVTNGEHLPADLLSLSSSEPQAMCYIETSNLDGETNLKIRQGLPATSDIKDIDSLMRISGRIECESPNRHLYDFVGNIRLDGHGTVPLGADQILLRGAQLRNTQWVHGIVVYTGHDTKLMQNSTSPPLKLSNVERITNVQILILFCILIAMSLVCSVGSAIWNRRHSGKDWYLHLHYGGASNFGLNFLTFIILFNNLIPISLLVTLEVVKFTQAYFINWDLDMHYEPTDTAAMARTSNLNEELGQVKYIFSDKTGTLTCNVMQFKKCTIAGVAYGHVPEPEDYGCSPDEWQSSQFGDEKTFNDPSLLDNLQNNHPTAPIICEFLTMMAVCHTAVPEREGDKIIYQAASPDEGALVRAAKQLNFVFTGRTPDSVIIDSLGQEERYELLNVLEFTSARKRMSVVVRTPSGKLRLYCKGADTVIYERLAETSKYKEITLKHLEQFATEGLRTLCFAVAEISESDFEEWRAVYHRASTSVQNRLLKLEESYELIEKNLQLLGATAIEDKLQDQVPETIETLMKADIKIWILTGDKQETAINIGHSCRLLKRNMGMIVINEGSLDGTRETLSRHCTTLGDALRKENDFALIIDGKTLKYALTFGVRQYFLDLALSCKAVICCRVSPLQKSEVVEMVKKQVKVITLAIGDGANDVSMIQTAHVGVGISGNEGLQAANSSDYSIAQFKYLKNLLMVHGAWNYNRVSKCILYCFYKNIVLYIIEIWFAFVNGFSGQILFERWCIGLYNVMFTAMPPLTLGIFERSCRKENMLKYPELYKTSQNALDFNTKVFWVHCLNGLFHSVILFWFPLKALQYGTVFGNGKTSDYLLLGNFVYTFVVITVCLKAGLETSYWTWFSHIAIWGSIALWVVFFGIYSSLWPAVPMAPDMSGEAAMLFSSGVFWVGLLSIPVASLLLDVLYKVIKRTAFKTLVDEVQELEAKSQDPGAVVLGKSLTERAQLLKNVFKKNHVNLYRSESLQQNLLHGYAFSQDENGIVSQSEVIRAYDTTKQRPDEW
# UniProt P70697: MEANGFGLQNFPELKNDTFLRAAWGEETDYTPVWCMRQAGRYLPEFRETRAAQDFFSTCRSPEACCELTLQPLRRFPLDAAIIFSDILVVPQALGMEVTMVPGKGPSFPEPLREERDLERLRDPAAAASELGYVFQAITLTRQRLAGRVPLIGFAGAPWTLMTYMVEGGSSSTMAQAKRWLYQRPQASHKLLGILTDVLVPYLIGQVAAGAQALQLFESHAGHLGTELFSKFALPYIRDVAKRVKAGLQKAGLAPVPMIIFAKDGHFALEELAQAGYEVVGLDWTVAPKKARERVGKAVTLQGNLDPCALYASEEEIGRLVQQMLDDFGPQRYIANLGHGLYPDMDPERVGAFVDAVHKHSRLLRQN
# UniProt P56812: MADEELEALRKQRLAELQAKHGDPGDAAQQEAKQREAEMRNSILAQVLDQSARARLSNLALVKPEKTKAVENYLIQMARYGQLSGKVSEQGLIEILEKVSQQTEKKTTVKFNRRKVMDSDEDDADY
# The list shows a part of the results. Most entries show no effect beyond the scatter of the controls.
# Compound: CN[C@@H]1C[C@H]2O[C@@](C)([C@@H]1OC)n1c3ccccc3c3c4c(c5c6ccccc6n2c5c31)C(=O)NC4 [staurosporine]
# Assay: log2 fold change of pooled soluble protein (PISA), ligand vs vehicle (log2 ratio); higher = more thermally stabilized
# Settings: ligand concentration: 20 uM; assay format: PISA pool 52.9/55.5/58.6 C
row,Target,log2 fold change of pooled soluble protein
1,P61327;Q9CQL1,-0.117
2,UniProt P57776,-0.0555
3,UniProt P58044,-0.0455
4,UniProt P97429,0.0848
5,UniProt P68254,0.0539
6,UniProt P59913,-0.138
7,UniProt P70318,-0.0218
8,UniProt P59729,0.193
9,UniProt P97765,-0.0233
10,UniProt P80315,-0.018
11,UniProt P60824,-0.0301
12,UniProt P70280,0.0358
13,UniProt P58252,-0.0237
14,UniProt P70349,0.18
15,UniProt P61750,-0.0366
16,P63094;Q6R0H7,-0.0163
17,UniProt P83093,-0.0362
18,UniProt P97364,-0.0617
19,UniProt P59481,-0.256

# Looked up one by one from above:
row,Target,log2 fold change of pooled soluble protein
17,UniProt P83093,-0.0362
16,P63094;Q6R0H7,-0.0163
15,UniProt P61750,-0.0366

# More records:

row,Target,log2 fold change of pooled soluble protein
1,UniProt P62814,-0.0315
2,UniProt P70441,-0.0564
3,UniProt P58735,-0.0913
4,UniProt P70665,-0.0217
5,UniProt P58281,-0.0876
6,UniProt P70699,0.175
7,UniProt P70335,0.398
8,UniProt P70257,-0.0818
9,UniProt P62137,0.00679
10,UniProt P60762,-0.28
11,UniProt P62962,-0.153
12,P62737;P68033;P68134,0.0736
13,UniProt P63002,-0.589
14,UniProt P97352,0.254
15,UniProt P70704,0.17
16,UniProt P70697,-0.264
17,UniProt P97447,-0.0451
18,UniProt P63328,-0.0989
19,UniProt P56812,-0.00857
